This passage reports survivor count and T/C results from PubChem BioAssay AID330 (DTP/NCI, 2004).

The test system of the test is P388 leukemia ip, CD2F1 mice, survival T/C. In words: NCI In Vivo Anticancer Drug Screen. Data for tumor model P388 Leukemia (intraperitoneal) in CD2F1 (CDF1) mice. Particulars: T/C endpoint: median survival time, higher T/C = longer survival.
The mark [1] stands for this setting: dose: 240.0 mg/kg/injection, schedule: Q01DX005 (ip), vehicle: saline with Tween-80.
The mark [2] stands for this setting: dose: 100.0 mg/kg/injection, schedule: Q01DX009 (ip), vehicle: saline with Tween-80.
Setting [3] is: dose: 200.0 mg/kg/injection, schedule: Q01DX009 (ip), vehicle: saline with Tween-80.
The mark [4] stands for this setting: dose: 50.0 mg/kg/injection, schedule: Q01DX005 (ip), vehicle: Klucel (hydroxypropylcellulose) (HPC).
The mark [5] stands for this setting: dose: 50.0 mg/kg/injection, schedule: Q01DX009 (ip), vehicle: saline + Tween-80 + alcohol.

The structures appear in SMILES notation. The list shows only some results of the screen, not a fair sample: it is rich in T/C values a quarter to a half above the control, in often repeated tests (any T/C) and in doses without a T/C. Other doses and runs of a compound stand elsewhere. T/C: endpoint of the treated group in % of that of the vehicle group. Some doses have a count of surviving animals in place of a T/C: the source files T/C as zero there, which appears to mark a toxic dose or a test without result, not a measured value. Some survivor counts are full or nearly so, which does not show that the dose was tolerated: survival well below the control is almost never listed, so the zero probably covers shortened survival too. Survivors were counted at the toxicity check, usually on the fifth day, unless a day is given; later deaths do not show. Schedules are NCI's codes, read here as Q, the interval in days (D) or hours (H), X, the number of doses. Some doses were run more than once; the values are given in rising order. Where survival is the endpoint, this PubChem deposit counts one and a half times the control or more as active, and values a quarter to a half above the control carry no call in these data; other NCI protocols may use other cut-offs. Some T/C values carry the count of animals alive at the toxicity check (mostly the fifth day); where none is given, no animal had died by that day.

In the case of `NC(=O)c1cccn1Cc1ccccc1SSc1ccccc1Cn1cccc1C(N)=O`, the survivor count under setting [1] was 6 of 6.
Regarding `CC(=O)OCC#CCN1CCCCCC1`, the survivor count (dose: 200.0 mg/kg/injection, schedule: Q01DX005 (ip), vehicle: saline) is listed as 0 of 6.
With `CN(C)C1=NC(N(C)C)=C2C=CC=C12`, the survivor count reads like this: (dose: 60.0 mg/kg/injection, schedule: Q01DX005 (ip), vehicle: Klucel (hydroxypropylcellulose) (HPC)) 6 of 6; (dose: 120.0 mg/kg/injection, schedule: Q01DX005 (ip), vehicle: Klucel (hydroxypropylcellulose) (HPC)) 4 of 6; (dose: 240.0 mg/kg/injection, schedule: Q01DX005 (ip), vehicle: Klucel (hydroxypropylcellulose) (HPC)) 0 of 6.
In the case of `CCC1CN2CCC3(C(=O)Nc4ccccc43)C2CC1/C(=C/OC)C(=O)OC` (configuration not stated), the survivor count under setting [2] is reported as 2 of 6; the survivor count under setting [3] is 0 of 6; the survivor count (dose: 400.0 mg/kg/injection, schedule: Q01DX009 (ip), vehicle: saline with Tween-80) is 0 of 6.
In the case of `CN1CC(C2(O)CCN(C)C2=O)C(O)C1=O` (configuration not stated), the survivor count (dose: 400.0 mg/kg/injection, schedule: Q01DX001 (ip), vehicle: saline) is on record as 3 of 6.
As for `CCOC(=O)C(C)(C)CN(CCCN(C)C)CC(C)(C)C(=O)OCC`, the survivor count under setting [3] is recorded as 0 of 6.
Take `CS(=O)(=O)OCCC[Se]Cc1ccccc1C[Se]CCCOS(C)(=O)=O`: under setting [1], the survivor count is 0 of 6.
`COc1ccc2c(C(=O)c3ccccc3)c3[n+](cc2c1OC)CCc1cc2c(cc1-3)OCO2`: the survivor count is reported as 2 of 5 (dose: 25.0 mg/kg/injection, schedule: Q01DX005 (ip), vehicle: Klucel (hydroxypropylcellulose) (HPC)); 0 of 6 under setting [4]; 0 of 6 (dose: 100.0 mg/kg/injection, schedule: Q01DX005 (ip), vehicle: Klucel (hydroxypropylcellulose) (HPC)); 0 of 6 (dose: 200.0 mg/kg/injection, schedule: Q01DX005 (ip), vehicle: Klucel (hydroxypropylcellulose) (HPC)).
For the compound `C=CCNc1ncnc2c1cnn2C`, the survivor count (dose: 200.0 mg/kg/injection, schedule: Q04DX003 (ip), vehicle: saline with Tween-80) is 3 of 6.
As to `CC(=O)C1(O)Cc2c(O)c3c(c(O)c2C(OC2CC(N)C(O)C(C)O2)C1)C(=O)c1ccccc1C3=O` (configuration not stated), the T/C was 131 % of control (dose: 0.03 mg/kg/injection, schedule: Q01DX009 (ip), vehicle: water); 133 % of control (dose: 0.05 mg/kg/injection, schedule: Q01DX009 (ip), vehicle: water, evaluated on day 30); 140 % of control (dose: 0.05 mg/kg/injection, schedule: Q01DX009 (ip), vehicle: water, evaluated on day 45); 147 % of control (dose: 0.13 mg/kg/injection, schedule: Q04DX003 (ip), vehicle: water); 127 % of control (dose: 0.6 mg/kg/injection, schedule: Q04DX003 (ip), vehicle: water, evaluated on day 30); 145 % of control [5 of 6 alive] (dose: 0.6 mg/kg/injection, schedule: Q04DX003 (ip), vehicle: water, evaluated on day 45). For the same compound, the T/C is, setting by setting: (dose: 1.2 mg/kg/injection, schedule: Q04DX003 (ip), vehicle: water, evaluated on day 30) 136 % of control; (dose: 1.2 mg/kg/injection, schedule: Q04DX003 (ip), vehicle: water, evaluated on day 45) 138 % of control. Also, the survivor count by setting is: (dose: 0.4 mg/kg/injection, schedule: Q01DX009 (ip), vehicle: water) 6 of 6; (dose: 0.8 mg/kg/injection, schedule: Q01DX009 (ip), vehicle: water) 5 of 6 and 6 of 6; (dose: 1.0 mg/kg/injection, schedule: Q04DX003 (ip), vehicle: water) 8 of 8; (dose: 1.56 mg/kg/injection, schedule: Q01DX009 (ip), vehicle: water) 4 of 6 and 6 of 6; (dose: 1.6 mg/kg/injection, schedule: Q01DX009 (ip), vehicle: water) 4 of 6 and 5 of 6; (dose: 2.0 mg/kg/injection, schedule: Q01DX005 (ip), vehicle: water) 6 of 6. The survivor count by setting is: (dose: 2.4 mg/kg/injection, schedule: Q01DX001 (ip), vehicle: water) 6 of 6; (dose: 3.13 mg/kg/injection, schedule: Q01DX009 (ip), vehicle: water) 3 of 6 and 6 of 6; (dose: 3.2 mg/kg/injection, schedule: Q01DX001 (ip), vehicle: water) 3 of 6; (dose: 4.0 mg/kg/injection, schedule: Q01DX005 (ip), vehicle: water) 4 of 6; (dose: 4.2 mg/kg/injection, schedule: Q01DX001 (ip), vehicle: water) 3 of 6; (dose: 5.6 mg/kg/injection, schedule: Q01DX001 (ip), vehicle: water) 5 of 6. Further, the survivor count is 0 of 6 (dose: 6.25 mg/kg/injection, schedule: Q01DX009 (ip), vehicle: water); 2 of 6 (dose: 7.5 mg/kg/injection, schedule: Q01DX001 (ip), vehicle: water); 1 of 6 (dose: 10.0 mg/kg/injection, schedule: Q01DX001 (ip), vehicle: water); 0 of 6 (dose: 12.5 mg/kg/injection, schedule: Q01DX009 (ip), vehicle: water); 6 of 6 (dose: 16.0 mg/kg/injection, schedule: Q01DX005 (oral), vehicle: water); 0 of 6 (dose: 25.0 mg/kg/injection, schedule: Q01DX009 (ip), vehicle: water).
Regarding `ClC1=C(Cl)C2(Cl)C3C(Cl)C(Cl)CC3C1(Cl)C2(Cl)Cl` (configuration not stated), the T/C under setting [5] is 86 and 90 % of control [5 of 6 alive]. For the same compound, the survivor count reads like this: under setting [5], 3 of 6 and 6 of 6; (dose: 100.0 mg/kg/injection, schedule: Q01DX009 (ip), vehicle: other) 3 of 6; (dose: 100.0 mg/kg/injection, schedule: Q01DX009 (ip), vehicle: saline + Tween-80 + alcohol) 0 of 6; (dose: 200.0 mg/kg/injection, schedule: Q01DX009 (ip), vehicle: other) 0 of 6 and 4 of 6; (dose: 200.0 mg/kg/injection, schedule: Q01DX009 (ip), vehicle: saline + Tween-80 + alcohol) 0 of 6; (dose: 300.0 mg/kg/injection, schedule: Q01DX009 (ip), vehicle: other) 0 of 6. Besides, the survivor count by setting is: (dose: 400.0 mg/kg/injection, schedule: Q01DX009 (ip), vehicle: saline + Tween-80 + alcohol) 0 of 6; (dose: 800.0 mg/kg/injection, schedule: Q01DX009 (ip), vehicle: saline + Tween-80 + alcohol) 0 of 6.
Consider `Clc1ccc(N=C2N=C(Nc3ccc(Cl)cn3)c3ccccc32)nc1`, for which the survivor count is 6 of 6 under setting [2] and 6 of 6 under setting [3].
With `N#CC(Br)(C#N)Cc1ccccc1`, the survivor count was 6 of 6 (dose: 100.0 mg/kg/injection, schedule: Q01DX009 (ip), vehicle: Klucel (hydroxypropylcellulose) (HPC)) and 4 of 6 (dose: 200.0 mg/kg/injection, schedule: Q01DX009 (ip), vehicle: Klucel (hydroxypropylcellulose) (HPC)).
As for `CC1([P+](C)(C)C)C2C=CC1CC2` (configuration not stated), the survivor count by setting is: (dose: 200.0 mg/kg/injection, schedule: Q01DX001 (ip), vehicle: saline with Tween-80) 1 of 6; (dose: 400.0 mg/kg/injection, schedule: Q01DX001 (ip), vehicle: saline with Tween-80) 0 of 6.
For the compound `C=C1C(=O)OC2/C=C(/C)C3OC3/C=C(/C(=O)OC)C(OC(C)=O)C(OC(=O)C3(C)OC3C)C12` (configuration not stated), the T/C (dose: 3.0 mg/kg/injection, schedule: Q01DX009 (ip), vehicle: Klucel (hydroxypropylcellulose) (HPC)) is 127 and 132 % of control; the T/C (dose: 6.0 mg/kg/injection, schedule: Q01DX009 (ip), vehicle: Klucel (hydroxypropylcellulose) (HPC)) was 131 and 133 % of control; the T/C (dose: 12.0 mg/kg/injection, schedule: Q01DX009 (ip), vehicle: Klucel (hydroxypropylcellulose) (HPC)) was 131 % of control. Moreover, the survivor count (dose: 24.0 mg/kg/injection, schedule: Q01DX009 (ip), vehicle: Klucel (hydroxypropylcellulose) (HPC)) was 5 of 6.
As for `Oc1ccc(CCC2CCC(c3ccc(O)cc3)CO2)cc1` (configuration not stated), the survivor count under setting [4] is given as 6 of 6.
